In patent US4500707A, “Nucleosides useful in the preparation of polynucleotides” (University Patents, Inc., priority 1982, dated 1985):

Legend:
Format in all cases: physicochemical
[1] = Lewis acid hydrolysis rates of triarylmethyl groups attached to the 5'-hydroxyl of deoxynucleosides (Table VII); settings: tlc, exposure to HCl vapors
[2] = Protic acid hydrolysis rates of triarylmethyl groups attached to the 5'-hydroxyl of deoxynucleosides (Table VIII); settings: tlc, exposure to HCl vapors
Experimental: The 5'-triarylmethyldeoxynucleosides were treated with protic and Lewis acids using carefully controlled conditions. The results of these studies are also recorded in Tables VII and VIII. […] The rates are more variable with protic acids.
^1 Reaction conditions were 2% toluenesulfonic acid in
chloroform:methanol (7:3). Aliquots were removed from the reaction
solution, quenched with ammonium acetate and analyzed visually after tlc
and exposure to HCl vapors. Time points were taken at 15, 30, 45, 60, 90,

[3] = Color of color coded nucleosides/phosphines in protic or Lewis acids (Tables X, XII)
[4] = Color of trityl cations of triarylmethyl alcohols, tlc plates exposed to hydrochloric acid vapor (Table V); settings: triarylmethyl alcohol, tlc, hydrochloric acid vapor
[5] = 5'-O-triarylmethylnucleoside-3'-N,N-dimethylaminomethoxyphosphine, Lewis acid or protic acid (Table XII)
[6] = 5'-triarylmethyl deoxynucleoside exposed to protic or Lewis acids (Table X, text)

SMILES	Color in Acid [1]	Color in Acid [2]	further results
COc1ccc(C(OC[C@H]2O[C@@H](n3ccc(NC(=O)c4ccccc4)nc3=O)C[C@@H]2O)(c2ccccc2)c2ccc(OC)cc2)cc1 [5'-O-dimethoxytrityl-N-benzoyldeoxycytidine]	Orange	Orange	–
COc1ccc(C(OC[C@H]2O[C@@H](n3cc(C)c(=O)[nH]c3=O)C[C@@H]2O)(c2ccccc2)c2ccc(OC)cc2)cc1 [5'-Dimethoxytritylthymidine]	Orange	Orange	–
COP(O[C@H]1C[C@H](n2cnc3c(NC(=O)c4ccccc4)ncnc32)O[C@@H]1COC(c1ccccc1)(c1ccccc1)c1ccc(C)cc1)N(C)C (stereo partly drawn) [5'-O--p-tolyldiphenylmethyl-N--benzoyldeoxyadenosine-3'-N,N--dimethylaminomethoxyphosphine]	–	–	Color [3, 5]: Yellow
COc1ccccc1C(OC[C@H]1O[C@@H](n2ccc(NC(=O)c3ccccc3)nc2=O)C[C@@H]1O)(c1ccccc1OC)c1cccc2ccccc12 [R1 = R2 = b; R3 = n, C]	Blue	Blue	Color [3, 6]: Blue
COc1ccc(C(OC[C@H]2O[C@@H](n3cc(C)c(=O)[nH]c3=O)C[C@@H]2O)(c2ccccc2)c2cccc3ccccc23)cc1 (stereo partly drawn) [R1 = n; R2 = c; R3 = a, T]	Green	Green	Color [3, 6]: Red
COc1ccccc1C(OC[C@H]1O[C@@H](n2ccc(NC(=O)c3ccccc3)nc2=O)C[C@@H]1OP(OC)N(C)C)(c1ccccc1OC)c1cccc2ccccc12 (stereo partly drawn) [5'-O--di-o-anisyl-1-napthylmethyl-N--benzoyldeoxycytidine-3'-N,N--dimethylaminomethoxyphosphine]	–	–	Color [3, 5]: Blue
COc1ccccc1C(OC[C@H]1O[C@@H](n2cc(C)c(=O)[nH]c2=O)C[C@@H]1O)(c1ccccc1OC)c1cccc2ccccc12 [R1 = R2 = b; R3 = n, T]	Blue	Blue	–
COc1ccc(C(OC[C@H]2O[C@@H](n3cnc4c(NC(=O)c5ccccc5)ncnc43)C[C@@H]2O)(c2ccccc2)c2ccc(OC)cc2)cc1 [5'-O-dimethoxytrityl-N-benzoyldeoxyadenosine]	Orange	Orange	–
COc1ccc(C(OC[C@H]2O[C@@H](n3cc(C)c(=O)[nH]c3=O)C[C@@H]2OP(OC)N(C)C)(c2ccccc2)c2cccc3ccccc23)cc1 (stereo partly drawn) [5'-O--p-anisyl-1-naphthylphenylmethyldeoxythymidine-3'-N,N--dimethylaminomethoxyphosphine]	–	–	Color [3, 5]: Red
Cc1cn([C@H]2C[C@H](O)[C@@H](COC(c3ccccc3)(c3ccc(F)cc3)c3cccc4ccccc34)O2)c(=O)[nH]c1=O (stereo partly drawn) [R1 = n; R2 = e; R3 = a, T]	Red	Red	–
COc1ccc(C(OC[C@H]2O[C@@H](n3cnc4c(=O)[nH]c(NC(=O)C(C)C)nc43)C[C@@H]2OP(OC)N(C)C)(c2ccccc2)c2ccc(OC)cc2)cc1 (stereo partly drawn) [5'-O--di-p-anisylphenylmethyl-N--isobutyryldeoxyguanosine-3'-N,N--dimethylaminomethoxyphosphine]	–	–	Color [3, 5]: Orange
Cc1ccc(C(OC[C@H]2O[C@@H](n3cnc4c(NC(=O)c5ccccc5)ncnc43)C[C@@H]2O)(c2ccccc2)c2ccccc2)cc1 [R1 = h; R2 = R3 = a, A]	Yellow	Yellow	Color [3, 6]: Yellow
COc1ccccc1C(OC[C@H]1O[C@@H](n2cnc3c(=O)[nH]c(NC(=O)C(C)C)nc32)C[C@@H]1O)(c1ccccc1)c1ccccc1OC [R1 = R2 = b; R3 = a, G]	Black	Black	–
COc1ccc(C(OC[C@H]2O[C@@H](n3cnc4c(=O)[nH]c(NC(=O)C(C)C)nc43)C[C@@H]2O)(c2ccccc2)c2ccc(OC)cc2)cc1 [5'-O-dimethoxytrityl-N-isobutyryldeoxyguanosine]	Orange	Orange	Color [3, 6]: Orange
OC(c1ccccc1)(c1cnc2ccccc2c1)c1cnc2ccccc2c1 [R1 = R2 = q; R3 = a]	–	–	Color [4]: Colorless
COc1ccc(C(O)(c2ccc(OC)cc2)c2ccc(OC)cc2)cc1 [R1 = R2 = R3 = c]	–	–	Color [4]: Red
OC(c1ccccc1)(c1ccc(F)cc1)c1ccccc1Cl (stereo not drawn) [R1 = e; R2 = a; R3 = j]	–	–	Color [4]: Orange
OC(c1ccccc1)(c1ccccc1Cl)c1cccc2ccccc12 (stereo not drawn) [R1 = n; R2 = j; R3 = a]	–	–	Color [4]: Green
OC(c1ccccc1)(c1ccc(-c2ccccc2)cc1)c1ccc(-c2ccccc2)cc1 [R1 = R2 = p; R3 = a]	–	–	Color [4]: Violet-Red
